{
  "sequences": {"note": "Amino acid sequences for entries named in this document (tags omitted). A change or cut given only in a name is not applied to a line headed by its entry. Residues count along the entry.", "UniProt P20163, residues 18-657": "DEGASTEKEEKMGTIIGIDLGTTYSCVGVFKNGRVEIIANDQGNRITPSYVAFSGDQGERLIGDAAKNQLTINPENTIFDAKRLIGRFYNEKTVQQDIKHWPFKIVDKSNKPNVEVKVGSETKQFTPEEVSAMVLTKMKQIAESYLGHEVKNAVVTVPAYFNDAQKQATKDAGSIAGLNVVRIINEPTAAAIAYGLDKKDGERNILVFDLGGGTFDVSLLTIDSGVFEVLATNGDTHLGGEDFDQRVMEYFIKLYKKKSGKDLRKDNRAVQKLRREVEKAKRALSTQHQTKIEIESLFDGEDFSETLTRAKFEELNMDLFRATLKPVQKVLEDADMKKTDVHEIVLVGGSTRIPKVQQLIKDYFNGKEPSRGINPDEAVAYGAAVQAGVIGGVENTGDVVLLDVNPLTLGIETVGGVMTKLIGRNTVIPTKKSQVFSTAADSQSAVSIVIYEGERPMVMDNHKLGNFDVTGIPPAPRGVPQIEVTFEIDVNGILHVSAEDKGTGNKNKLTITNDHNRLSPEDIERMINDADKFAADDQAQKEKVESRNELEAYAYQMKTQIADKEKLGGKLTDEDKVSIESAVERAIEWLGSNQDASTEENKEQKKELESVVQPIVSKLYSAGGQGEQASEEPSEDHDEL", "UniProt G5EEW1": "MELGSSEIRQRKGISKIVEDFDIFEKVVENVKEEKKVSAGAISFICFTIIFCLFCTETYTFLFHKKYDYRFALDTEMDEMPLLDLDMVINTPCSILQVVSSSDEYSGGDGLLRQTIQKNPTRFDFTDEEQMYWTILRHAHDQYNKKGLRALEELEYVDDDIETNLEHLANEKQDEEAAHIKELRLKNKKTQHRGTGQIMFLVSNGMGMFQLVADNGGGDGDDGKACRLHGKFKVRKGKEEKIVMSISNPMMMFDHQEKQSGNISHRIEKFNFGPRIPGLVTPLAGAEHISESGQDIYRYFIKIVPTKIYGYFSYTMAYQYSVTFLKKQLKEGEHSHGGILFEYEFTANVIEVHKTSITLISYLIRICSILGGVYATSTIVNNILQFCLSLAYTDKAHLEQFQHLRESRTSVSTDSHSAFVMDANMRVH", "UniProt Q93878": "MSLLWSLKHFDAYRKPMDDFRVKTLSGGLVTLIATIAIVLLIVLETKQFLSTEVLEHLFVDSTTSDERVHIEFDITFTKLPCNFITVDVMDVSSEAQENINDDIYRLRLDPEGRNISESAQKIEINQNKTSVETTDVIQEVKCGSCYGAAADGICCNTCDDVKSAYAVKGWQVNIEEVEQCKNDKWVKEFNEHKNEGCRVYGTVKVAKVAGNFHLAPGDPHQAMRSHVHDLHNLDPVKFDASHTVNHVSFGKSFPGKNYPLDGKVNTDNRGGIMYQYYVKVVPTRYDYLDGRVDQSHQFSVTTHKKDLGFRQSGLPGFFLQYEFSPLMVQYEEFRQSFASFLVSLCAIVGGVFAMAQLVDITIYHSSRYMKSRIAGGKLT", "UniProt Q09499": "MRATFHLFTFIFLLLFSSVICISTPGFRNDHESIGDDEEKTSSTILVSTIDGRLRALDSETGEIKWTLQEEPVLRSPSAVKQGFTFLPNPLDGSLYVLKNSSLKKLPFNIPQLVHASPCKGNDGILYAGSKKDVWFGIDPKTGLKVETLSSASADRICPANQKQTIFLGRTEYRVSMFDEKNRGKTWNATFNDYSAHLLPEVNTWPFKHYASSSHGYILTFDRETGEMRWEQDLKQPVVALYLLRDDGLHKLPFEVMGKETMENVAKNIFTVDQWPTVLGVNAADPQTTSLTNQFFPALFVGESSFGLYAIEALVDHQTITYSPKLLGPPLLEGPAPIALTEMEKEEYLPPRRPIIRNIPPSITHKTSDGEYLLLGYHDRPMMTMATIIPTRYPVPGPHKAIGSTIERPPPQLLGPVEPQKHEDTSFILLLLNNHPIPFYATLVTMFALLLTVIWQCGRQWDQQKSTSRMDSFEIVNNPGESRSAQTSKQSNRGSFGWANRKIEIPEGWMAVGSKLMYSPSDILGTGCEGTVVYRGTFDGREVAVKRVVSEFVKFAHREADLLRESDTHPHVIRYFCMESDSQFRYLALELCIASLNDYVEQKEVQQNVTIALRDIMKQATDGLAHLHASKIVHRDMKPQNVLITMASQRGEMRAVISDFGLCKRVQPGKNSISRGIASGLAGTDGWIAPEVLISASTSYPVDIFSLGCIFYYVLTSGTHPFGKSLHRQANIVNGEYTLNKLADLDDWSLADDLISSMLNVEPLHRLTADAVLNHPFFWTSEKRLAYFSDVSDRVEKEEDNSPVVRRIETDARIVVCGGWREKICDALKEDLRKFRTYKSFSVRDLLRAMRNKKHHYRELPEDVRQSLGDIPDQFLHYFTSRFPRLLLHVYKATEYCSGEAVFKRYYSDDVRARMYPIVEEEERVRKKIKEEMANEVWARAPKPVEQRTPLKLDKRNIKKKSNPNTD"},
  "source": "paper PMC13568704",
  "key": {"HSP-4::Myc (C. elegans)": {"target": "HSP-4::Myc (C. elegans) (UniProt P20163)", "assay": "co-IP; HEK293T co-transfected; RIPA lysates; anti-Myc gel beads overnight at 4°C; western blot; for HSP-4::Myc with IRE-1::HA with empty Flag vector, Flag::ERGI-2 or Flag::ERGI-3 co-expressed"}, "[1]": {"target": "Flag::ERGI-2 (C. elegans) (UniProt G5EEW1)", "assay": "co-IP; HEK293T co-transfected; RIPA lysates; anti-FLAG M2 affinity gel overnight at 4°C; western blot"}, "[2]": {"target": "Flag::ERGI-3 (C. elegans) (UniProt Q93878)", "assay": "co-IP; HEK293T co-transfected; RIPA lysates; anti-FLAG M2 affinity gel overnight at 4°C; western blot"}, "[3]": {"target": "Flag::ERGI-2 (C. elegans) (UniProt G5EEW1)", "assay": "co-IP; HEK293T; HSP-4::Myc, UNC-9::GFP and Flag::ERGI-2 or Flag::ERGI-3 expressed together (Fig 6G, 6H); precipitating antibody not given"}, "[4]": {"target": "Flag::ERGI-3 (C. elegans) (UniProt Q93878)", "assay": "co-IP; HEK293T; HSP-4::Myc, UNC-9::GFP and Flag::ERGI-2 or Flag::ERGI-3 expressed together (Fig 6G, 6H); precipitating antibody not given"}},
  "note": "No constants are given. Whether binding was seen depends on the method and setting. In cells and extracts the contact can be indirect. Binding can be weak; no strength is given. For some of these results: Tags and fused reporters may be left off the sequences shown.",
  "data": [
    {"molecule": "Flag::ERGI-2 (from UniProt G5EEW1)", "values": [
      {"measurement": "binding", "setting": "HSP-4::Myc (C. elegans)", "value": "binds"}
    ]},
    {"molecule": "HSP-4::Myc (from UniProt P20163 18-657)", "values": [
      {"measurement": "binding", "setting": "[1]", "value": "binds"},
      {"measurement": "binding", "setting": "[2]", "value": "binds"},
      {"measurement": "binding", "setting": "[3]", "value": "binds"},
      {"measurement": "binding", "setting": "[4]", "value": "binds"}
    ]},
    {"molecule": "IRE-1::HA (ER luminal region) (from UniProt Q09499) (domain or fragment)", "values": [
      {"measurement": "binding", "setting": "[1]", "value": "no binding"},
      {"measurement": "binding", "setting": "[2]", "value": "no binding"},
      {"measurement": "binding", "setting": "HSP-4::Myc (C. elegans)", "value": "binds"}
    ]},
    {"molecule": "UNC-9::GFP (protein, UniProt O01393 1-386) MSMLLYYFASAVKSIQFHVDDDIIDKLNYYYTTAIITVFAILVSAKQYVGFPIQCWVPATFTEPMEQYTENYCWVQNTYFLPLHDYIPHNYAERENRQIGYYQWVPFVLALEALLFYVPTIVWRLLSWQSGIHVQSLVQMACDSRLLDLESRNRALQTIATNVEEALHVKHQVMSGNRLKLLNLIICTRSSGAAVTFLYISVKILYTVNIVGQIFLLNTFLGNRSKWYGLQVLNDLMNGREWEESGHFPRVTLCDFEVKVLGNVHRHTVQCVLMINMFNEKIFLFLWFWYFLLAGATLCSLFYWIYISVVPSRQLNFVGKYLTGIEGYKMVDSQSLRRFVFHFLRQDGVFLLRMVATHAGELPCYELAKTLWNNYCDNKEGKMHDV", "values": [
      {"measurement": "binding", "setting": "[3]", "value": "binds"},
      {"measurement": "binding", "setting": "[4]", "value": "binds"}
    ]}
  ]
}
